Percent effect of library compounds

Sequences of proteins named here, by UniProt entry; tags and fusion partners are left off. Residues count along the entry.
UniProt P9WPC5, whole entry: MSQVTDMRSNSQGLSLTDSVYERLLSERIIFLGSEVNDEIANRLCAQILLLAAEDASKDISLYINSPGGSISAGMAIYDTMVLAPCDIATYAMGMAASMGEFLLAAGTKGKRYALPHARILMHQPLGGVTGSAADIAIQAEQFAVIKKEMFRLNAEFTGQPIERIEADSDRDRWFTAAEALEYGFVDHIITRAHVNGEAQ
UniProt P9WPC3, whole entry partner: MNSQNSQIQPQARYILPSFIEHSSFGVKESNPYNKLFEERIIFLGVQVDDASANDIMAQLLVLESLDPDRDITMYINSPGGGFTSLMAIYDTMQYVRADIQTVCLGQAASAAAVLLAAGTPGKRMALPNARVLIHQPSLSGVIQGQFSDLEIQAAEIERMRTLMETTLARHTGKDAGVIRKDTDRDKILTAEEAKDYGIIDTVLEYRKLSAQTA
UniProt I6X8D2, whole entry: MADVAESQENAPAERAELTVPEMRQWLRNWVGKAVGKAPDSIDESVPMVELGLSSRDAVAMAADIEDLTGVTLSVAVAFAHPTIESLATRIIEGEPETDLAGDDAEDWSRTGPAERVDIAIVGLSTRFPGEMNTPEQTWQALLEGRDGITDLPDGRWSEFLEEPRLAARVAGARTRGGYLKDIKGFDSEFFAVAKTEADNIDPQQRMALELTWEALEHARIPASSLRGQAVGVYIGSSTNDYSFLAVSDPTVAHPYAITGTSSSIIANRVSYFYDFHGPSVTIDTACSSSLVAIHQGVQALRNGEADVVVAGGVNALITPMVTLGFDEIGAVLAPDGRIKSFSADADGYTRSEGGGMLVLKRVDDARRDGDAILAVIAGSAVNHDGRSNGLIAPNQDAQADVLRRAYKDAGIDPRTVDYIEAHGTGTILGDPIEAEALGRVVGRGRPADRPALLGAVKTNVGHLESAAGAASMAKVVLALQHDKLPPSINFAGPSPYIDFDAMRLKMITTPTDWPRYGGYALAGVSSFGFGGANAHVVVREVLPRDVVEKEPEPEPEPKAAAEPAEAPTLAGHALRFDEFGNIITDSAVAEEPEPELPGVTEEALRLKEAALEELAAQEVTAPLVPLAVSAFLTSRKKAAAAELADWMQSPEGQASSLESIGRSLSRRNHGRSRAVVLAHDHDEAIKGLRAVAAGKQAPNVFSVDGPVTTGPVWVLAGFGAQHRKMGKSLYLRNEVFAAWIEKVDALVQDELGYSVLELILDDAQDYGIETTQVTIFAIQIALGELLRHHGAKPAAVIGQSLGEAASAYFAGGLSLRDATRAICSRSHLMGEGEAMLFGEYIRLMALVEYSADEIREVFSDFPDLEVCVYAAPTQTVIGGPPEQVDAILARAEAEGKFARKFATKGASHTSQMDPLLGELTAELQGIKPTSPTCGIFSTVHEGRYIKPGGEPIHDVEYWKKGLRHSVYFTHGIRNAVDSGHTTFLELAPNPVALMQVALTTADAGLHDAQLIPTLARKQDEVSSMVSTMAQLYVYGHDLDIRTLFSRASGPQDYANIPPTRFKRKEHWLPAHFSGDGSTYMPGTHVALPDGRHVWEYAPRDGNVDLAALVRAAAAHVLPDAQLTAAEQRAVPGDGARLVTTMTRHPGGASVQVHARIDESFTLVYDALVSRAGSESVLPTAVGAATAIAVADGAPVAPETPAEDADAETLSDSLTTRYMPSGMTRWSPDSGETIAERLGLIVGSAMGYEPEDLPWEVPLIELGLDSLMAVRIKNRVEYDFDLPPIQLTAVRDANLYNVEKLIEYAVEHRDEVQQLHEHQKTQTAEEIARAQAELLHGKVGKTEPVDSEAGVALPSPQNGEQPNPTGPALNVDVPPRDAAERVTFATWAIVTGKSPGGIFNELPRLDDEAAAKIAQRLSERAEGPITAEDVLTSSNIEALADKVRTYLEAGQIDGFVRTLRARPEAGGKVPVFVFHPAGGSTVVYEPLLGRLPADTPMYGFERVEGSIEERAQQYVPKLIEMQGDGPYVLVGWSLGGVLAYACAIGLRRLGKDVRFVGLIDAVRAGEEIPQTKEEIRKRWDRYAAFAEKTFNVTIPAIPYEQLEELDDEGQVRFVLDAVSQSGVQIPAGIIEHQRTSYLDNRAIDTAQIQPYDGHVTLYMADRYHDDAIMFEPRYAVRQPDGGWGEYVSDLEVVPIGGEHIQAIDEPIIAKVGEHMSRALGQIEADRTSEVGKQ
UniProt P9WNZ1, whole entry: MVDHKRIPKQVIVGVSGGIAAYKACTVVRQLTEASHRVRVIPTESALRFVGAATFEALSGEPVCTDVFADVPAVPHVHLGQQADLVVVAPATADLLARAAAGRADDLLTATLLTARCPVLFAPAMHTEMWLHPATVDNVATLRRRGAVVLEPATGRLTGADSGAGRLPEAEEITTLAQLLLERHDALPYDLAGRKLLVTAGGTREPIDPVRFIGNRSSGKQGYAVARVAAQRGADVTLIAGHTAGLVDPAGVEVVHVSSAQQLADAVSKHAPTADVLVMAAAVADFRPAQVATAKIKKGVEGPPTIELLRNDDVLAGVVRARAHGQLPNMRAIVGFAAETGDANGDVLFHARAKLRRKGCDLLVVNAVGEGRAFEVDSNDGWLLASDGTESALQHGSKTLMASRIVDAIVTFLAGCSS
UniProt A4I591, 1-473: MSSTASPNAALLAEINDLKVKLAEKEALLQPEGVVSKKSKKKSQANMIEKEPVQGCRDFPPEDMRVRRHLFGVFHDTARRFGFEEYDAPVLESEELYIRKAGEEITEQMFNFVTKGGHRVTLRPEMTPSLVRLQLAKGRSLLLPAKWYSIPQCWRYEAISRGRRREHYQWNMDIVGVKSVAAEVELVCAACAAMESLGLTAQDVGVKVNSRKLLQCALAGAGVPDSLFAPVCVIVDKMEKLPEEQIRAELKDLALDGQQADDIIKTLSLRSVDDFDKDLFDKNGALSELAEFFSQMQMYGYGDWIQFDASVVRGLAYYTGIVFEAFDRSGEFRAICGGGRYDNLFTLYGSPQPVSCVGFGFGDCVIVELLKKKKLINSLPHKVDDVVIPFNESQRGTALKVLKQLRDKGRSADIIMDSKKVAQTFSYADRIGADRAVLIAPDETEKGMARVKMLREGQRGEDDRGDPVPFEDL
UniProt Q4DA54, 1-478: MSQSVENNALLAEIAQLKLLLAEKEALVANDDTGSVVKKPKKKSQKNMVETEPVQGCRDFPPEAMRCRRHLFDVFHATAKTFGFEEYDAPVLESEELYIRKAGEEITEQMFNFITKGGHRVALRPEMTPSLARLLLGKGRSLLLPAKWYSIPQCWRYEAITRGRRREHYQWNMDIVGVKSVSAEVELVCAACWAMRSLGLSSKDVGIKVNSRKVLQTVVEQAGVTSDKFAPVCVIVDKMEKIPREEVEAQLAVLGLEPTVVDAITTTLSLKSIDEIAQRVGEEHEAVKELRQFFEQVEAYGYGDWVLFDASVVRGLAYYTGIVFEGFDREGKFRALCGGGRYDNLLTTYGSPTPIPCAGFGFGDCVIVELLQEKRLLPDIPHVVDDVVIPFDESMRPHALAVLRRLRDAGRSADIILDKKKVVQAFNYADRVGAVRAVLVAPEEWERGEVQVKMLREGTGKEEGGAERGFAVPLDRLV

From ChEMBL document CHEMBL3988442, “University of Dundee, Small-Polar-MMV Screening Library” (2021).

A: 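Protease assay of ClpP1P2, read by the AMC dye that it sets free. Target: ClpP1P2, Mycobacterium tuberculosis (UniProt P9WPC5 and UniProt P9WPC3). Compounds at 50 µM. Direction is inferred from only a few compounds that gave an IC50; most scored high, so higher reads as stronger inhibition. Most other retested compounds had strongly negative values. Of about 69,000 compounds tested this way, about 10 (0.015%) reached 50% or more in at least one test.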
B: 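Polyketide synthase Pks13, Mycobacterium tuberculosis (UniProt I6X8D2). Enzyme assay of the thioesterase domain of polyketide synthase 13; the read-out is not stated. Tested at 30 µM. The record gives no direction; the compounds picked for IC50 retests had high values, so higher reads as stronger inhibition. Size under these conditions: about 67,000 compounds, about 300 of them at 50% or above in at least one test.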
C: 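Coenzyme A biosynthesis protein CoaBC, Mycobacterium tuberculosis (UniProt P9WNZ1). Enzyme assay of CoaBC with a phosphate dye (Biomol Green) read at 650 nm. Tested at 30 µM. Higher reads as stronger inhibition, judged from the few compounds that gave an IC50. Most strong results did not repeat in a second test. Size under these conditions: about 67,000 compounds, about 40 of them at 50% or above in at least one test.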
D: 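Histidine-tRNA ligase, Leishmania infantum (UniProt A4I591). Enzyme assay of histidyl-tRNA synthetase; the read-out is not stated. Compounds at 30 µM. Higher reads as stronger inhibition (inferred: compounds with an IC50 in retests scored well above the rest). The assay is labelled LdHisRS but filed under L. infantum. About 69,000 compounds were tested under these conditions; 0.6% (about 410) showed 50% or more at least once.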
E: 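Histidine-tRNA ligase, Trypanosoma cruzi CL Brener (UniProt Q4DA54). Enzyme assay of histidyl-tRNA synthetase; the read-out is not stated. Tested at 30 µM. Higher reads as stronger inhibition (inferred: compounds with an IC50 in retests scored well above the rest). Of about 69,000 compounds tested this way, about 31 (0.045%) reached 50% or more in at least one test.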

Values are the deposited “Percent Effect”, in %. How 0% and 100% were set is not recorded. Most values in the screen are low, and negative values occur. Compounds were drawn at random from those tested, without regard to their results. A dash means the value is not listed here; it may have been measured.

Compound,A,B,C,D,E
CCc1nccn1C1CCCN(C(=O)c2cc3nc(C)ccc3o2)C1 (stereo not shown),1.433,-15.31,2.491,0,4.511
Fc1ccccc1CN1CCC(c2n[nH]c(C3CC3)n2)CC1,4.02,-,10.02,11.4,-1.724
O=C1CC(NCc2cnc(-c3cccs3)nc2)CN1c1ccccc1 (stereo not shown),5.576,-18.15,8.434,16.42,9.574
Cc1n[nH]c2c1C(c1ccc3c(c1)OCCO3)SCC(=O)N2 (stereo not shown),0.6797,-16.11,-0.3632,14.13,0.9901
Cc1ccc2c(c1)c(CNC(=O)C1CC(=O)N(C3CC3)C1)nn2C (stereo not shown),7.431,-29.35,-6.638,38.33,2.273
CCN1CCNC(=O)C12CCN(C(=O)c1ccccn1)CC2,7.334,-30.36,-0.8485,3.846,1.676
O=C(NCCc1cccnc1)C1CCCN(Cc2ccco2)C1 (stereo not shown),9.473,7.355,-1.799,9.375,3.352
Cc1csc(C2(NCc3nnc(-c4ccco4)o3)CCCC2)n1,4.851,-,3.226,5.263,-2.521
CCOCC(O)CN1CCN(C(=O)C(C)(C)CC)CC1 (stereo not shown),-6.551,-4.08,-2.212,18.42,4.36
CC(C)CN1CC2(CCN(C(=O)C3CNC(=O)N3)CC2)CC1=O (stereo not shown),4.729,-44.99,-,15.49,1.911
CC(=O)NC(CC(=O)Nc1nc(C)c(C)s1)c1ccccc1 (stereo not shown),6.584,3.266,3.165,18.07,4.878
COc1ncccc1CNc1cc(N2CCCC2CO)ncn1 (stereo not shown),4.207,-,0.4819,13.7,1.527
O=S(=O)(NCCn1ccc(-c2ccccn2)n1)C1CCCCC1,-11.39,-20.22,-5.138,9.589,1
Cc1ccc(NC(=O)Nc2cnc(N3CCN(C)CC3)nc2)c(Cl)c1,-11.07,-27.47,3.169,20.39,4.348
CCOCC(=O)N1CCC2(CC1)CN(Cc1cccnc1)C(=O)CO2,-3.148,-21.75,4.471,19.27,2.404
Cc1nn(C)c2cn(C(C)C(=O)NCc3ccc(F)cc3)nc12 (stereo not shown),-2.401,-28.06,10.16,6.897,1.739
COCC1CN(c2ncccn2)Cc2cnn(CC3CC3)c21 (stereo not shown),-1.209,-19.53,0.9901,6.306,0
O=C(O)c1ccc(-c2cscn2)cc1,2.12,-32.25,13.49,18.33,9.091
CN1CCCC(NC(=O)c2ccc(C(=O)c3cc[nH]c3)cc2)C1 (stereo not shown),-7.374,-5.369,3.719,1.333,0.578
Cc1nnc2n1CC(CNc1ncnc3ccccc13)CC2 (stereo not shown),0.387,-1.271,2.73,23.4,8.671
Cc1cc(C(C)NCCN2CCC(N(C)C)CC2)c(C)s1 (stereo not shown),11.69,-11.61,-21.52,22.08,1.478
O=C(c1n[nH]c2c1CCC2)N1CCCC1c1nc(-c2ccccc2)no1 (stereo not shown),19.21,-2.198,-0.8032,13.43,-1.064
O=C(CCCc1ccccn1)N1CCOc2ccc(F)cc21,-6.103,-48.86,1.071,15.52,0.5236
CN(Cc1ccncc1)C1COC2(CCN(Cc3cccs3)CC2)C1 (stereo not shown),-16.37,-16.27,-9.001,9.722,4.762
COc1c(C2CCCN2c2ncnc3c2CCC3)c(C)nn1C (stereo not shown),-7.378,-9.563,6.522,2.618,9.091
CC(C)CCn1[nH]c(CNc2ccc(Cl)cc2)nc1=O,-16.84,-4.073,3.671,7.5,2.484
CC(C)Oc1cccc(C(=O)Nc2nncs2)c1,-1.669,-11.2,2.427,2.41,6.077
CC(C)c1csc(C2CCCN(C(=O)Cn3ccccc3=O)C2)n1 (stereo not shown),-3.593,21.88,-7.181,-2.4,2.662
CC(=O)N1CCC(c2ncc(C(=O)Nc3ccccc3)c(C)n2)CC1,-8.65,5.175,-9.685,2.797,0
CC(C)OCCC(=O)NCCc1csc(N2CCCC2)n1,-0.1582,-2.391,-7.025,-0.8929,8.333
Cc1cc(C(O)CCNC(=O)COc2ccccc2F)c(C)o1 (stereo not shown),-5.522,-34.46,9.514,6.957,2.062
Cc1nn(C)c(C)c1-c1ccc(=O)n(C(C)C(=O)NC(C)(C)C)n1 (stereo not shown),3.223,-3.054,-6.412,9.859,7.576
CC(Cn1cccn1)NCc1nc(-c2cccnc2)no1 (stereo not shown),-13.96,1.874,-1.02,13.58,9.375
COc1cc2c(cc1-c1nc3c(cnn3C)[nH]1)OCO2,0.5036,8.487,-7.851,-6.667,8.671
CC(C)(C)S(=O)(=O)c1ccc(N2CCC(n3cccn3)CC2)cn1,-3.107,-22.35,1.141,1.266,3.017
Cn1cc(-c2csc(N3CCOCC3)n2)cn1,-1.833,-5.379,1.688,35.58,10.57
CC(C)Oc1cccc(CNC(=O)N2CCC(N3CC=CC3)C2)c1 (stereo not shown),-13.38,-13.09,3.037,9.735,-0.4425

Once more, the final 3:

| Compound | A | B | C | D | E |
|---|---|---|---|---|---|
| `CC(C)(C)S(=O)(=O)c1ccc(N2CCC(n3cccn3)CC2)cn1` | -3.107 | -22.35 | 1.141 | 1.266 | 3.017 |
| `Cn1cc(-c2csc(N3CCOCC3)n2)cn1` | -1.833 | -5.379 | 1.688 | 35.58 | 10.57 |
| `CC(C)Oc1cccc(CNC(=O)N2CCC(N3CC=CC3)C2)c1` (stereo not shown) | -13.38 | -13.09 | 3.037 | 9.735 | -0.4425 |